# Results: PubChem BioAssay (EPA / NIEHS)
# By UniProt entry, the sequences of proteins in these tests, tags left out. Where a name states a change or a piece, a line headed by the entry shows the natural chain unless it says otherwise.
# UniProt P49884, whole entry, looked up: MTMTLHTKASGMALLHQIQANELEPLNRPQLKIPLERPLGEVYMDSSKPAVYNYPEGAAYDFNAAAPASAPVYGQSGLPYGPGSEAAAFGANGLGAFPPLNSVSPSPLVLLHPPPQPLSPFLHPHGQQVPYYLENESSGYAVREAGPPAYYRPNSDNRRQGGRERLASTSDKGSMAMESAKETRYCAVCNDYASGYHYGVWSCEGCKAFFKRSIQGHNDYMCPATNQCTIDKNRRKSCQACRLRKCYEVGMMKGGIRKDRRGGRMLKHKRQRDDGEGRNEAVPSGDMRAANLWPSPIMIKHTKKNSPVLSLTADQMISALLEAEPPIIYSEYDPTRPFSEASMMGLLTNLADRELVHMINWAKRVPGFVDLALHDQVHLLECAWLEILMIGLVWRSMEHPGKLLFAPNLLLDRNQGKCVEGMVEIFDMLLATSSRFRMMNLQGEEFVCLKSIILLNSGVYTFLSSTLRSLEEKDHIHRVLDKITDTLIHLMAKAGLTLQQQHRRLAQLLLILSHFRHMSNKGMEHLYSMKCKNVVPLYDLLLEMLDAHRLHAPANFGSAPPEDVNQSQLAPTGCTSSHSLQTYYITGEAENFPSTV
# UniProt O75469: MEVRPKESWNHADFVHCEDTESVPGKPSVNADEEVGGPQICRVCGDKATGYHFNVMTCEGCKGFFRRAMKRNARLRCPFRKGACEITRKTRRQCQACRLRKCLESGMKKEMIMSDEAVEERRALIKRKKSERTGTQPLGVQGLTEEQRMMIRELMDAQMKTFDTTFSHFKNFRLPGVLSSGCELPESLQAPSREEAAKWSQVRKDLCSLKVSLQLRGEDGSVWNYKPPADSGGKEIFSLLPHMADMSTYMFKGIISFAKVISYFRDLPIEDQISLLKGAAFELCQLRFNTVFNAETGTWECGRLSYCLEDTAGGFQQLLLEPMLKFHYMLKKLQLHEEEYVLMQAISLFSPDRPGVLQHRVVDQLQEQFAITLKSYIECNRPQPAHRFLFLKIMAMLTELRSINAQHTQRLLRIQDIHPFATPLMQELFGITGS
# UniProt P19785, whole entry, looked up: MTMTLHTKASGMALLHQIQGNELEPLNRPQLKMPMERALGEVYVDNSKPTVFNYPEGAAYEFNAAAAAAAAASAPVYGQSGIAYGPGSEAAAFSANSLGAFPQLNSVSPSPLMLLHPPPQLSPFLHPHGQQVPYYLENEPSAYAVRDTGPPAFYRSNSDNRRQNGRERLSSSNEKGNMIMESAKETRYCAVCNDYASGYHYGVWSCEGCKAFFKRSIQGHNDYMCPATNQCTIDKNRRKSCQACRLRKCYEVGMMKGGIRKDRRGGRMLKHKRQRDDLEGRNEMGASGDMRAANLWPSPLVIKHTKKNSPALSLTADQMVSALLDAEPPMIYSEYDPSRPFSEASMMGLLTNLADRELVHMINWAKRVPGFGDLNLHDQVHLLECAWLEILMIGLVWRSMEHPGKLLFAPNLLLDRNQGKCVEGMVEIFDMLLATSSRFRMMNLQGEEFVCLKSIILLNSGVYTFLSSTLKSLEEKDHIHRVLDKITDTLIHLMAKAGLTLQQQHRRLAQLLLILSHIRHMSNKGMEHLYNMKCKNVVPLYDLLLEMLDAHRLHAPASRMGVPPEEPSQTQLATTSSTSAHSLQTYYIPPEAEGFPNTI
# UniProt Q96RI1: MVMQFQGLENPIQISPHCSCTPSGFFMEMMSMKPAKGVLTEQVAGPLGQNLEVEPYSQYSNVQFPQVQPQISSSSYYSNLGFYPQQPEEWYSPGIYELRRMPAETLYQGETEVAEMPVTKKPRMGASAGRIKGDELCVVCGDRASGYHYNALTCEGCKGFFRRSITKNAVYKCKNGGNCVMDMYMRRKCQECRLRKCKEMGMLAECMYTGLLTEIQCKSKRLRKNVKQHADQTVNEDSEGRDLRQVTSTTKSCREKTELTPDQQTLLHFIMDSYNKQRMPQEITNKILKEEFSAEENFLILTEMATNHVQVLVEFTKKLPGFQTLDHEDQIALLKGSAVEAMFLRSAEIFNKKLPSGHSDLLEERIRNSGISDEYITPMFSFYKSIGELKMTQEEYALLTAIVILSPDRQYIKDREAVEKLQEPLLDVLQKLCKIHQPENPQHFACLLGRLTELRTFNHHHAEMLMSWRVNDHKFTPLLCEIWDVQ
# UniProt P42336, whole entry, looked up: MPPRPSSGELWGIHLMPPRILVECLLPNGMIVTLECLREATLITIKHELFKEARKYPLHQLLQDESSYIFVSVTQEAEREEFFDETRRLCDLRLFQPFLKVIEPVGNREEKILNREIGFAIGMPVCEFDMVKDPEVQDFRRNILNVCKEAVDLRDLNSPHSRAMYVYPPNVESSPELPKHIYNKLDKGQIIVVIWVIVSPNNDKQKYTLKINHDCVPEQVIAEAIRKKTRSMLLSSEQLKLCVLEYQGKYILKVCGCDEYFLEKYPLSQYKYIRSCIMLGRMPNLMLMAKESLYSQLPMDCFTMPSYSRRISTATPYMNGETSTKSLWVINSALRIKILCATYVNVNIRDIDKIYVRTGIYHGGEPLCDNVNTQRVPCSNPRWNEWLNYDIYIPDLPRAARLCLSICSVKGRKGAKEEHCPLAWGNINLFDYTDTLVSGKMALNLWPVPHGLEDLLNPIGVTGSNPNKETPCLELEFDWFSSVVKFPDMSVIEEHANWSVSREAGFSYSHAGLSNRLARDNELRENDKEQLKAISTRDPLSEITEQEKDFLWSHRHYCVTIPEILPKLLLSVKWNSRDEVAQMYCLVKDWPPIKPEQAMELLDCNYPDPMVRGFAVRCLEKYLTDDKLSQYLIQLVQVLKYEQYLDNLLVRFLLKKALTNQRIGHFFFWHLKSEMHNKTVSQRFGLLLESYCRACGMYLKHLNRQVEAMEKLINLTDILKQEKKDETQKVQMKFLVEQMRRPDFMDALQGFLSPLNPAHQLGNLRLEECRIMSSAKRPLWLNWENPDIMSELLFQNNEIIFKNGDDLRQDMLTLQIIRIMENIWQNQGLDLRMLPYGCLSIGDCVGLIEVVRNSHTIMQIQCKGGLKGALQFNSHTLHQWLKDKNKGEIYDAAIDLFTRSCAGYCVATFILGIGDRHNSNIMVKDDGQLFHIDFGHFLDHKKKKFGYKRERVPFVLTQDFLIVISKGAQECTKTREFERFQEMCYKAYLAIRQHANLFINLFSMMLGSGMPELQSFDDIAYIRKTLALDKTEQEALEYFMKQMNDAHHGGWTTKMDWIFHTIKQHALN
# UniProt Q92731, whole entry, looked up: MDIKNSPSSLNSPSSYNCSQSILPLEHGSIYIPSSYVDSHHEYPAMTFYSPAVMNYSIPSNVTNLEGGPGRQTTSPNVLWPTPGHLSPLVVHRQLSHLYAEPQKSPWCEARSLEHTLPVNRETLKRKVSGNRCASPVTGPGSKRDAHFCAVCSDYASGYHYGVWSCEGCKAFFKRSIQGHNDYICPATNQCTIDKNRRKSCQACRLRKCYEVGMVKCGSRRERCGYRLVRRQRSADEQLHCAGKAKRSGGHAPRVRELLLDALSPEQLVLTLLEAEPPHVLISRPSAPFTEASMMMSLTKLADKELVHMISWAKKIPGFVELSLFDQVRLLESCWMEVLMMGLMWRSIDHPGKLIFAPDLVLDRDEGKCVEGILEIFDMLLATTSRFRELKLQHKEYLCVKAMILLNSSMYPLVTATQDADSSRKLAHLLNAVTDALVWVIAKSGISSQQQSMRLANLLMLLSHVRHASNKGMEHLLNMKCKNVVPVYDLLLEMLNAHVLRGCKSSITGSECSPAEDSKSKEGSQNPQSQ
# UniProt P33261, whole entry, looked up: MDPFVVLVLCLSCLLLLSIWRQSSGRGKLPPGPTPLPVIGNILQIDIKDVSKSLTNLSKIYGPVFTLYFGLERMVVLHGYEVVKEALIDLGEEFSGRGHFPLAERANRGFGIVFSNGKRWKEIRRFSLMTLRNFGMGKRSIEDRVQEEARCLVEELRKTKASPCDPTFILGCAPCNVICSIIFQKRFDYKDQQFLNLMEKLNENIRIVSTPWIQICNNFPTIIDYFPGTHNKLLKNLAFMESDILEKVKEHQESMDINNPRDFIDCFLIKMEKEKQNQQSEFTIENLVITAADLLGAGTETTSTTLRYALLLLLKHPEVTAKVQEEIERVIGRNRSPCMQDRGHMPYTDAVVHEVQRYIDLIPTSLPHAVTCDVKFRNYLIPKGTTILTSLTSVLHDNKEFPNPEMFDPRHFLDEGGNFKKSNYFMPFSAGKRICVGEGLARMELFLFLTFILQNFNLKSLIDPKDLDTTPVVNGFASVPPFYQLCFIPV
# UniProt P21709: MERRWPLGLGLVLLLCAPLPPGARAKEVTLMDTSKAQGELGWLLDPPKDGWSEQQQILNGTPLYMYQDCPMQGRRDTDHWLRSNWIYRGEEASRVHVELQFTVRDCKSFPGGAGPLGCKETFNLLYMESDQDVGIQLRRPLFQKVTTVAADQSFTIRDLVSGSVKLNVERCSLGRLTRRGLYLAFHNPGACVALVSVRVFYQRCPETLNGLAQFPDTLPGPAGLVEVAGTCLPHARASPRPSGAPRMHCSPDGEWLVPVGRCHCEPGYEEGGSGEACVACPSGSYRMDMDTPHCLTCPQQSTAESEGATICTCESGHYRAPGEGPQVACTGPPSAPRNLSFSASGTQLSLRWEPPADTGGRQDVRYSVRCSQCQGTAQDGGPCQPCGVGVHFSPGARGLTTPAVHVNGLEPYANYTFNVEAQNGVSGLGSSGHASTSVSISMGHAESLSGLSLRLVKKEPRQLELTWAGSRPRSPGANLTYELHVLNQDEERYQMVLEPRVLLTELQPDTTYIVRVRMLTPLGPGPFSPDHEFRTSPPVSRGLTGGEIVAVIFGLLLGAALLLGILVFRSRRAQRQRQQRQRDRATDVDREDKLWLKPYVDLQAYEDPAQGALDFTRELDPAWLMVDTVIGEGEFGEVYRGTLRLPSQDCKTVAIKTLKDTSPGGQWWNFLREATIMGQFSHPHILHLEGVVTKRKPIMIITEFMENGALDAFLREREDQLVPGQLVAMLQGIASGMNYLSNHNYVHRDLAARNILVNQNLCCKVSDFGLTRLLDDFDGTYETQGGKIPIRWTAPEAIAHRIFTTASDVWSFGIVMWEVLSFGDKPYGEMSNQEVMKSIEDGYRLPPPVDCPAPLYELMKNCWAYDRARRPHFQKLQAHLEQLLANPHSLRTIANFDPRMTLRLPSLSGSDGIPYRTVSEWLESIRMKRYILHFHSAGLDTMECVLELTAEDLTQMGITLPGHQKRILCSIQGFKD
# This list was built around the results that the source calls inconclusive (neither active nor inactive); the mix of calls is not that of the screen. For some of these results: A potency beside an inconclusive call is a rough fit, not a confirmed value. Activity calls are given as the source filed them. The calls were made as follows: active = hit-call score of the fitted dose curve at least 0.9, where 1 is the maximum; inconclusive = response in the unintended direction; inactive = score below 0.9.
# Experiments:
# [1] = molecular target: bovine Estrogen Receptor (ER), ESR1 (gene 407238) (UniProt P49884); test: NVS_NR_bER: NovaScreen (NVS) Nuclear Receptor Binding Assay for bovine Estrogen Receptor (ER) (AID 2283345);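 also: actives lower the bound radioligand count which means they displace the ER ligand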
# In short: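 Displacement of a radioligand from estrogen receptor in bovine uterine membrane preparations; scintillation signal taken at 18 hours, DMSO as baseline. Single-concentration duplicates (25 uM) preceded concentration-response follow-up of actives.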
# [2] = molecular target: Nuclear receptor subfamily 1 group I member 2 (Homo sapiens) (UniProt O75469); test: NVS_NR_hPXR: NovaScreen (NVS) Nuclear Receptor Binding Assay for human Pregnane X Receptor (PXR) (AID 2283365);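 also: a drop in FRET signal versus DMSO baseline means the compound binds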
# In short: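 Human PXR binding measured by TR-FRET in a cell-free format, 2 h exposure. Single-concentration duplicates at 25 uM preceded concentration-response retests of actives; endpoint fitted positively relative to DMSO, loss of signal indicating binding.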
# [3] = molecular target: mouse Estrogen Receptor alpha (Era), Esr1 (gene 13982) (UniProt P19785); test: NVS_NR_mERa: NovaScreen (NVS) Nuclear Receptor Binding Assay for mouse Estrogen Receptor alpha (Era) (AID 2283378);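 also: hit means loss of bound radioligand signal relative to DMSO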
# In short: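 Filter radiodetection of radioligand displacement from extracted receptor protein, measured 18 h post-dose. Single 25 uM concentration in duplicate initially, with concentration-series follow-up. Binding loss fitted relative to DMSO.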
# [4] = molecular target: Bile acid receptor (Homo sapiens) (UniProt Q96RI1); test: OT_FXR_FXRSRC1_0480: Odyssey Thera (OT) 8-hour HEK293T Protein-Complementation Assay for Farnesoid X receptor/SRC-1 Co-activator (AID 2283383)
# In short: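 Co-activator recruitment to FXR was measured in living HEK293T cells, where interaction of the two fused partners restored an active fluorescent reporter. Signal gain after 8 h treatment was referenced to DMSO.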
# [5] = molecular target: human Phosphoinositide 3-kinase alpha (PI3Ka), PIK3CA (gene 5290) (UniProt P42336); test: NVS_ENZ_hPI3Ka: NovaScreen (NVS) Enzymatic Assay for human Phosphoinositide 3-kinase alpha (PI3Ka) (AID 2283196)
# In short: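 Enzyme activity as fluorescence after mobility-shift separation of substrate and product, 1 h reaction, recombinant human PI3Kα; concentration-response to 50 uM max for chemicals passing a 25 uM duplicate screen.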
# [6] = molecular target: Estrogen receptor beta (Homo sapiens) (UniProt Q92731); test: OT_ER_ERbERb_0480: Odyssey Thera (OT) 8-hour HEK293T Protein-Complementation Assay for Estrogen Receptor-beta/-beta Homodimer (AID 2283357);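 also: active means signal gain over DMSO baseline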
# In short: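 Fluorescence intensity, nuclear for agonists and nuclear plus cytoplasmic for antagonists, was quantified by laser scanning cytometry versus vehicle after 8 h treatment. The cells were HEK293T stably carrying ER beta LBD fragment-complementation partners.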
# [7] = read-out: sulfotransferase (SULT2A), SULT2A1 (gene 6822); test: CLD_SULT2A_6hr: CellzDirect (CLD) Gene Expression Assay for sulfotransferase (SULT2A) at 6 hours (AID 2283669);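 also: hits raise transcript level above the DMSO vehicle baseline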
# In short: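 Primary human hepatocytes from two donor preparations were dosed daily with chemicals or 0.2% DMSO and harvested at 6 h. Transcript induction read by qNPA chemiluminescence, fitted for gain of signal relative to DMSO; morphology-based cytotoxicity annotated.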
# [8] = read-out: Cytochrome P450 2C19 (Homo sapiens) (UniProt P33261); test: CLD_CYP2C19_24hr: CellzDirect (CLD) Gene Expression Assay for xenobiotic metabolism (CYP2C19) at 24 hours (AID 2283687);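 as to outcome: activity means mRNA induction above DMSO vehicle baseline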
# In short: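 Primary human hepatocytes (two donor preparations) dosed daily with fresh test chemical in 0.2% DMSO vehicle; CYP2C19 mRNA induction measured at 24 h by quantitative nuclease protection assay with chemiluminescence, fitted for gain of signal versus DMSO.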
# [9] = CLD_ACTIN_48hr: CellzDirect (CLD) Gene Expression Assay for Baseline Control (Actin) at 48 hours (AID 2283702)
# In short: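 Primary human hepatocytes (two donor preparations) dosed daily for two days with ToxCast chemicals at multiple concentrations versus 0.2% DMSO vehicle; harvested at 48 h. Actin mRNA measured as a background control by quantitative nuclease protection assay with chemiluminescence.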
# [10] = ATG_Hpa5_TRANS: Attagene TRANS-FACTORIAL HepG2 Assay for human GAL4-Hpa5 Hepatocyte Transcription Factor Basal Promoter (AID 2282975); conditions: HepG2 Attagene GAL4-Hpa5 transcription reporter;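 as to outcome: hits are increases in reporter mRNA over DMSO baseline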
# In short: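 Basal-promoter GAL4 background control within the HepG2 trans-factorial panel of transiently transfected reporter units. Reporter mRNA is measured 24 h after dosing by RT-PCR and capillary electrophoresis, fitted for gain of signal versus DMSO.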
# [11] = Tanguay_ZF_120hpf_CIRC_legacy: (Legacy) Oregon State University Tanguay Lab 120 Hour Post-fertilization zebrafish Assay for Circulatory Malformation (AID 2283651)
# In short: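 Using wild-type Tropical 5D zebrafish, we exposed dechorionated embryos from 6 to 120 hpf in embryo medium with 0.64% DMSO. Circulatory defects were scored as present or absent; 5uM trimethyltin chloride served as positive control.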
# [12] = Tanguay_ZF_120hpf_TRUN_legacy: (Legacy) Oregon State University Tanguay Lab 120 Hour Post-fertilization zebrafish Assay for Truncated Body (AID 2283655)
# In short: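 Binary presence/absence of truncated body is recorded at 120 hpf by brightfield, with non-mortality endpoints skipped after death. Exposure is static from 6 hpf in sealed dark plates at 28C, using dechorionated wild-type zebrafish, 0.64% DMSO.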
# [13] = Tanguay_ZF_120hpf_TR_legacy: (Legacy) Oregon State University Tanguay Lab 120 Hour Post-fertilization zebrafish Assay for Touch Response (AID 2283667)
# In short: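 Tropical 5D wild-type zebrafish embryos statically exposed to 120 hpf at 28°C, sealed and dark-covered, 0.64% DMSO final; touch response scored as present/absent by brightfield microscopy at 120 hpf. Trimethyltin chloride 5 uM positive control; dead embryos not scored.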
# [14] = CCTE_Shafer_MEA_dev_AB: CCTE's Alamar Blue Assay for Cytotoxicity in the Neural Network Formation Assay, Shafer Lab (AID 2284083);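 also: resazurin reduction fluorescence as viability of cultured neurons; twelve days of exposure from plating with re-dosing on DIV 5 and 9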
# In short: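 Resazurin fluorescence, relative to DMSO, gauges viability after twelve days of exposure that began at plating of rat cortical neurons (1.5 x 10^5 cells/well, 48-well MEA); treatment renewed with full medium exchange on DIV 5 and 9.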
# [15] = CCTE_Mundy_HCI_hNP1_Pro_ResponderAvgInten: CCTE's Proliferation Assay in human neuroprogenitor cells, Mundy Lab (AID 2284224);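 also: human neural progenitor cells hNP1 derived from WA09 embryonic stem cells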
# In short: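 Proliferation read as average intensity of BrdU-positive cells, imaged at 26.25 h post-dosing: chemical exposure started after 40–44 h culture, BrdU during final 4 h, paraformaldehyde fixation. Positive-direction fit relative to DMSO.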
# [16] = molecular target: human Ephrin type-A Receptor 1 (EphA1), EPHA1 (gene 2041) (UniProt P21709); test: NVS_ENZ_hEphA1: NovaScreen (NVS) Enzymatic Assay for human Ephrin type-A Receptor 1 (EphA1) (AID 2283158);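 also: activity is signal loss versus DMSO meaning EphA1 kinase inhibition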
# In short: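 Fluorescent substrate conversion, resolved by mobility-shift separation, measured 1 hour post-dosing using recombinant enzyme; signal loss relative to DMSO baseline. Single-concentration duplicates at 25 uM preceded singleton concentration series topping at 50 uM.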
# [17] = Tanguay_ZF_120hpf_SOMI_legacy: (Legacy) Oregon State University Tanguay Lab 120 Hour Post-fertilization zebrafish Assay for Somite Malformation (AID 2283647)
# In short: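 Binary somite-defect scoring at 120 hpf, omitted for embryos that died, in wild-type (Tropical 5D) zebrafish with chorion removed by pronase at 4 hpf; static exposure began 6 hpf, single embryos per well, 28C, 0.64% DMSO; fitted positive versus DMSO.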
# [18] = CCTE_Shafer_MEA_acute_AB: CCTE's Alamar Blue Assay for Cytotoxicity in the Neural Acute Assay, Shafer Lab (AID 2284069);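 also: active compounds lower the viability signal compared with DMSO wells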
# In short: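 Resazurin reduction (CellTiter Blue, 1:6 in fresh medium) read at ex 544/em 590 nm marks viability loss relative to DMSO. Cells: primary rat cortical neuron networks on microelectrode arrays, treated after baseline recording at 13 or 15 days in vitro.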
# [19] = Tanguay_ZF_120hpf_BRAI_legacy: (Legacy) Oregon State University Tanguay Lab 120 Hour Post-fertilization zebrafish Assay for Brain Malformation (AID 2283641)
# In short: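 Binary brightfield scoring of brain malformation at 120 hpf in Tropical 5D larvae held under static exposure at 28C (0.64% v/v DMSO), non-mortality endpoints skipped if dead. Positive control: 5uM trimethyltin chloride; fit versus DMSO.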
# [20] = Tanguay_ZF_120hpf_CFIN_legacy: (Legacy) Oregon State University Tanguay Lab 120 Hour Post-fertilization zebrafish Assay for Caudal Fin Malformation (AID 2283649)
# In short: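 Binary brightfield scoring of caudal fin defects at 120 hpf after static, light-shielded exposure at 28C from 6 hpf. Tropical 5D embryos, chorion removed with pronase at 4 hpf, final DMSO 0.64%.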
compound,measurement,setting,value
OCC1CO1 (stereo not given),outcome,[1],inactive
same,outcome,[2],inactive
same,AC50,[3],inconclusive: 25 µM
same,AC50,[4],inconclusive: 19.2 µM
COc1ccc(N)cc1,AC50,[5],inconclusive: 26 µM
CC(C)Nc1nc(Cl)nc(NC(C)C)n1,AC50,[6],inconclusive: 50 µM
same,AC50,[7],inconclusive: 20 µM
same,AC50,[8],inconclusive: 37.8 µM
CC1(C)CON(Cc2ccccc2Cl)C1=O,AC50,[9],inconclusive: 11.7 µM
CCOP(=S)(OCC)Oc1ccc([N+](=O)[O-])cc1,AC50,[10],inconclusive: 1.17 µM
same,AC50,[11],inconclusive: 0.7 µM
same,outcome,[12],inactive
same,AC50,[13],inconclusive: 1.27 µM
same,AC50,[8],inconclusive: 20 µM
same,AC50,[9],inconclusive: 20 µM
same,outcome,[14],inactive
same,AC50,[15],inconclusive: 15 µM
CC1CC(=O)O1 (stereo not given),outcome,[16],inactive
Fc1ccc(Oc2ccnc3cc(Cl)cc(Cl)c23)cc1,outcome,[10],inactive
same,AC50,[4],active: 12.6 µM
same,outcome,[17],inactive
same,outcome,[11],inactive
same,AC50,[7],inconclusive: 1.89 µM
same,AC50,[8],inconclusive: 20 µM
O=C(O)COc1ccc(Cl)cc1Cl,outcome,[10],inactive
same,AC50,[17],inconclusive: 35 µM
same,AC50,[7],inconclusive: 36.7 µM
same,outcome,[14],inactive
CCOP(=S)(OCC)Oc1ccc2c(C)c(Cl)c(=O)oc2c1,AC50,[10],inconclusive: 0.605 µM
same,AC50,[6],inconclusive: 88.2 µM
same,AC50,[9],inconclusive: 1.89 µM
same,outcome,[18],inactive
same,outcome,[15],inactive
COc1cc(OC)nc(Oc2cccc(Oc3nc(OC)cc(OC)n3)c2C(=O)O)n1,AC50,[2],inconclusive: 0.141 µM
CCOC(=O)[C@]1(c2ccccc2)Oc2ccccc2[C@@H]1N,AC50,[6],inconclusive: 50 µM
same,outcome,[4],inactive
same,outcome,[19],inactive
same,AC50,[20],inconclusive: 17 µM
same,outcome,[12],inactive
CCCCCCCCCCCC#N,AC50,[16],inconclusive: 0.193 µM
same,AC50,[5],inconclusive: 45.5 µM
CCOC(=O)CC(SP(=O)(OC)OC)C(=O)OCC (stereo not given),AC50,[7],inconclusive: 20 µM
same,AC50,[9],inconclusive: 36.5 µM
same,AC50,[14],inconclusive: 0.591 µM
same,AC50,[15],inconclusive: 0.000509 µM
CCCC(=NOCC)C1=C(O)CC(CC(C)SCC)CC1=O (stereo not given),outcome,[3],inactive
same,outcome,[7],inactive
same,outcome,[8],inactive
same,AC50,[18],inconclusive: 20.1 µM
Nc1nc(N)nc(NC2CC2)n1,AC50,[10],inconclusive: 11.9 µM
same,AC50,[4],inconclusive: 50 µM
same,AC50,[19],inconclusive: 113 µM
same,outcome,[7],inactive
same,AC50,[8],inconclusive: 1.32 µM
same,outcome,[9],inactive

# Pulled one by one from the list above, 5 records:
compound,measurement,setting,value
CCOP(=S)(OCC)Oc1ccc([N+](=O)[O-])cc1,AC50,[8],inconclusive: 20 µM
CC1(C)CON(Cc2ccccc2Cl)C1=O,AC50,[9],inconclusive: 11.7 µM
CCCC(=NOCC)C1=C(O)CC(CC(C)SCC)CC1=O (stereo not given),outcome,[8],inactive
CCOP(=S)(OCC)Oc1ccc2c(C)c(Cl)c(=O)oc2c1,AC50,[9],inconclusive: 1.89 µM
Nc1nc(N)nc(NC2CC2)n1,AC50,[8],inconclusive: 1.32 µM
